The results in this text go back to patent US8877759B2, “Aminopyrazines as ATR kinase inhibitors” (Vertex Pharnaceuticals Incorporated, priority 2011, dated 2014).

Protein sequences, listed by entry. Tags and fused reporters are not part of them.
UniProt Q13535, whole entry: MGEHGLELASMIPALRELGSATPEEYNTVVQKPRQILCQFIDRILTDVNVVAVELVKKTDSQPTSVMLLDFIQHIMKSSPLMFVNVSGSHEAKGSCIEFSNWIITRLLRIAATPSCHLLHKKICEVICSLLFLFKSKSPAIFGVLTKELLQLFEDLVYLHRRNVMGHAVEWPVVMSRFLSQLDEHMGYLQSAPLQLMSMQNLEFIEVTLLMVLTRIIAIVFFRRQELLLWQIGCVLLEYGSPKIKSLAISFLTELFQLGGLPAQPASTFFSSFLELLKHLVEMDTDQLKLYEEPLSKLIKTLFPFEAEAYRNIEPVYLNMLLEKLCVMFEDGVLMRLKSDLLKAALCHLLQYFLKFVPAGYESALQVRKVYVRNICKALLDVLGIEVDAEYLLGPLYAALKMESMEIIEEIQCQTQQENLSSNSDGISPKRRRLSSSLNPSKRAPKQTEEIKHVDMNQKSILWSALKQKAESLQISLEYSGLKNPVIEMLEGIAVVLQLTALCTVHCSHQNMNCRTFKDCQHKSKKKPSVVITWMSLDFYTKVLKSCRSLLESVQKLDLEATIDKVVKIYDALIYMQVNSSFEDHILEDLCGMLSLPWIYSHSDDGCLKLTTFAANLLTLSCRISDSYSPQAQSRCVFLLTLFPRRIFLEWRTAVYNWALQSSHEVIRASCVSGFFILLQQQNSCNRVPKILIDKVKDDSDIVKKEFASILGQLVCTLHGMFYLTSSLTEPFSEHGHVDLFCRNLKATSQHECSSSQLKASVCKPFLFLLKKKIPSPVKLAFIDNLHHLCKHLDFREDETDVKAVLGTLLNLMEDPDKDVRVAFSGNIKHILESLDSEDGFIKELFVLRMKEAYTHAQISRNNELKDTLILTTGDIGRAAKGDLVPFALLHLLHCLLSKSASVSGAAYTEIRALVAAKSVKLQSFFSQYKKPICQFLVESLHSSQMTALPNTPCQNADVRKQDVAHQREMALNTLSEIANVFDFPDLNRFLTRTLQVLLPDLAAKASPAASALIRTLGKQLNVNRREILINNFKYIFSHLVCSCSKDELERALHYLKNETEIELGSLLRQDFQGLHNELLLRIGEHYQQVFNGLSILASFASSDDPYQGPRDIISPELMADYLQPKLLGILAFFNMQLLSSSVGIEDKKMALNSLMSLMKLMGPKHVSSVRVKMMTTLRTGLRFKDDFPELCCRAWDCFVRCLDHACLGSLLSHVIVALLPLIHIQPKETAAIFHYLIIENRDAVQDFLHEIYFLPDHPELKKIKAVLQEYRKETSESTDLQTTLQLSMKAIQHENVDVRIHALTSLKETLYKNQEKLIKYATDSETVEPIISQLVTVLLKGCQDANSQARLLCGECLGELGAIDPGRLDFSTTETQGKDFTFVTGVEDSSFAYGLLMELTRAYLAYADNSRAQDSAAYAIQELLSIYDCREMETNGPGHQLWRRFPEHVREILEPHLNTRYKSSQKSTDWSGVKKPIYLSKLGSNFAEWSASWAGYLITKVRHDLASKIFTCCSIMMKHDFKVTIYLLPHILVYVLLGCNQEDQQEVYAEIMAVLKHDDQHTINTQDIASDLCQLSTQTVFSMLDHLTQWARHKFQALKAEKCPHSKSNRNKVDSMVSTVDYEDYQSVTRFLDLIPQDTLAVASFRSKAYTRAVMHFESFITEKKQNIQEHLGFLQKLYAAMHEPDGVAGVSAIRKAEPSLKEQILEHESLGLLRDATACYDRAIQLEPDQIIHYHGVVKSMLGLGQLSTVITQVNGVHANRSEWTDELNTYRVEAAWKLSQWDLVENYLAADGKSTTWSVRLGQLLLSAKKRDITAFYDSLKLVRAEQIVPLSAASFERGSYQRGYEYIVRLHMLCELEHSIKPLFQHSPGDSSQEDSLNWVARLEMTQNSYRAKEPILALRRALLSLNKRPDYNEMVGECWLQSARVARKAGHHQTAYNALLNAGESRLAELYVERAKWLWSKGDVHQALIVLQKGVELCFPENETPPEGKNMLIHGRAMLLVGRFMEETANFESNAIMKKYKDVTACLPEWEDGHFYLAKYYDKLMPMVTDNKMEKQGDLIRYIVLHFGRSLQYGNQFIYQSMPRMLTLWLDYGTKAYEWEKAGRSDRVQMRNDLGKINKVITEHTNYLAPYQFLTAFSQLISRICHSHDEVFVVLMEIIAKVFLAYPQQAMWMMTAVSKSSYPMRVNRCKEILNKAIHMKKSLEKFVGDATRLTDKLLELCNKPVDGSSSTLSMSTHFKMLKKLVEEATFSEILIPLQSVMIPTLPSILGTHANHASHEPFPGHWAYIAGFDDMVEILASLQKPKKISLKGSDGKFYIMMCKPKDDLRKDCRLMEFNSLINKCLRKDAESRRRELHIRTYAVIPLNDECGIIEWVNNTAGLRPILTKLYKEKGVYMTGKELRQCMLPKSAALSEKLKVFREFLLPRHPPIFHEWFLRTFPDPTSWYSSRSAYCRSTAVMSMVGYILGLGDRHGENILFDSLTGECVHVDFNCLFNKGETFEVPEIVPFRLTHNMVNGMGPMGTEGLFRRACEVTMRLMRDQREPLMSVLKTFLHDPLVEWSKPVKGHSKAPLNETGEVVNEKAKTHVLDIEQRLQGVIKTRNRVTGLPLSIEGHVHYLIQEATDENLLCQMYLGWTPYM

This assay deals with full-length ATR (Homo sapiens, UniProt Q13535). The assay can be described thus: ATR Inhibition Assay (radioactive-phosphate incorporation). The note with it: Ki(app), 5 nM full-length ATR, 10 μM [γ-33P]ATP, 800 μM target peptide, 25° C.; for Ki: read-out: ATR Ki.

Structures were worked out from names or drawings and are uncertain.

With `CC(C)(C#N)c1cc(-c2cnc(N)c(-c3nnc(-c4ccc(NCC5CCCN5)cc4)o3)n2)ccn1` (stereo not shown), the Ki is < 1 nM.

Consider `CC(C)(C#N)c1cc(-c2cnc(N)c(-c3nnc(-c4ccc(NCCN)cc4)o3)n2)ccn1`, for which the Ki was < 1 nM.

Consider `Cc1ccsc1-c1nnc(-c2nc(-c3ccnc(C4(C#N)CCNCC4)c3)cnc2N)o1`, for which the Ki is 5 to 20 nM.

Turning to `CN(C)CCN(C)c1ccc(-c2nnc(-c3nc(-c4ccnc(C(C)(C)C#N)c4)cnc3N)o2)cc1`, the “ATR Ki” value was “+++ (Compounds with a Ki value >5 nM but ≦1 nM are marked with “+++.”)”. Regarding `CC(C)(C#N)c1cc(-c2cnc(N)c(-c3nnc(-c4ccc(NCCO)cc4)o3)n2)ccn1`, the Ki is < 1 nM. Take `CC(C)(C#N)c1cc(-c2cnc(N)c(-c3cc(-c4ccc(CNCC(=O)O)cc4)no3)n2)ccn1`: the Ki was 5 to 20 nM. As to `CC(C)(C#N)c1cc(-c2cnc(N)c(-c3nnc(-c4ccc(O[C@@H]5CCNC5)cc4)o3)n2)ccn1`, the “ATR Ki” value was “+++ (Compounds with a Ki value >5 nM but ≦1 nM are marked with “+++.”)”.
